Measurements reported in PubChem BioAssay AID493246 (Drosophila RNAi Screening Center, 2011).
Assay: 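Genome-wide search for dsRNAs that reduce cell number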 (primary screen). Cells: Drosophila Kc and S2R+ cells. Reagents: long dsRNA against Drosophila genes. Read-out: 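Raw, unnormalised count of remaining cells in each well; per-plate z-scores of cell number underlie the calls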. Scale: Kc cell number and S2R+ cell number: higher = more cells remaining. Active means: 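Active when the per-plate z-score of cell number is 3 or more in the direction of fewer cells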.
In all, the deposit lists about 21,000 reagents; below is a random part of those with a known target gene and a result. Over the whole deposit, 429 (2%) were called active. 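Values are raw and not normalised between plates; calls rest on per-plate z-scores that were not deposited.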 Names joined by + are all predicted targets of the reagent. The record does not give: the amount of reagent, the time to read-out.

no.	Target gene	DRSC id	Kc cell number, rep 1	Kc cell number, rep 2	S2R+ cell number, rep 1	S2R+ cell number, rep 2	outcome
1	CG32683	DRSC17990	1.46e6	1.51e6	9.88e5	1.11e6	inactive
2	CG32683	DRSC18232	1.66e6	1.61e6	1.05e6	1.18e6	inactive
3	CG32683	DRSC18233	1.80e6	1.70e6	1.08e6	1.18e6	inactive
4	mRpL23	DRSC08307	1.35e6	1.24e6	9.13e5	1.05e6	inactive
5	Jon25Biii	DRSC03115	1.59e6	1.48e6	1.12e6	1.29e6	inactive
6	CG3213	DRSC00576	1.66e6	1.48e6	1.08e6	1.25e6	inactive
7	CG14177 (retired record)	DRSC10176	1.29e6	1.41e6	1.23e6	1.30e6	inactive
8	CG9222	DRSC03158	1.79e6	2.16e6	1.22e6	1.41e6	inactive
9	Oseg6	DRSC06066	1.47e6	1.54e6	1.08e6	1.22e6	inactive
10	Uch	DRSC00797	1.26e6	1.31e6	8.37e5	7.69e5	inactive
11	CaMKII	DRSC17214	5.17e5		8.60e5		inactive
12	COX7AL2	DRSC00099	1.57e6	1.56e6	9.93e5	1.16e6	inactive
13	dup	DRSC07088	5.35e5	5.87e5	4.71e5	5.75e5	active
14	CR9337	DRSC03212	1.26e6	1.35e6	9.35e5	1.01e6	inactive
15	Ccdc39	DRSC12286	1.39e6	1.43e6	1.24e6	1.44e6	inactive
16	Vm26Ac	DRSC02329	1.64e6	1.74e6	1.10e6	1.27e6	inactive

Continued, starting with the last 4 of the part before.
no.	Target gene	DRSC id	Kc cell number, rep 1	Kc cell number, rep 2	S2R+ cell number, rep 1	S2R+ cell number, rep 2	outcome
13	dup	DRSC07088	5.35e5	5.87e5	4.71e5	5.75e5	active
14	CR9337	DRSC03212	1.26e6	1.35e6	9.35e5	1.01e6	inactive
15	Ccdc39	DRSC12286	1.39e6	1.43e6	1.24e6	1.44e6	inactive
16	Vm26Ac	DRSC02329	1.64e6	1.74e6	1.10e6	1.27e6	inactive
17	CG13545	DRSC04187	1.62e6	1.74e6	1.40e6	1.53e6	inactive
18	Cyp28c1	DRSC20236	1.47e6	1.45e6	1.03e6	1.10e6	inactive
19	CG7011	DRSC09347	1.46e6	1.56e6	1.15e6	1.36e6	inactive
20	CG17625	DRSC15249	1.56e6	1.58e6	9.39e5	1.11e6	inactive
21	dpr15	DRSC12891	1.50e6	1.68e6	1.08e6	1.21e6	inactive
22	dpr15	DRSC14187	1.52e6	1.46e6	1.08e6	1.19e6	inactive
23	dpr15	DRSC14188	1.71e6	1.64e6	1.37e6	1.50e6	inactive
24	Brd7-9	DRSC03017	1.45e6	1.50e6	6.01e5	8.68e5	inactive
25	CG33483	DRSC14019	1.14e6	1.53e6	1.08e6	1.13e6	inactive
26	CG13930	DRSC08399	1.76e6	1.64e6	1.03e6	1.42e6	inactive
27	gcm	DRSC03536	1.62e6	1.66e6	1.16e6	1.34e6	inactive
28	Ugt37A1	DRSC02114	1.75e6	1.77e6	1.25e6	2.29e5	inactive
29	Nckx30C	DRSC02686	1.47e6	1.53e6	1.27e6	1.35e6	inactive
30	Nckx30C	DRSC02687	1.54e6	1.61e6	1.28e6	1.47e6	inactive
31	Nckx30C	DRSC02688	1.71e6	1.85e6	1.40e6	1.56e6	inactive
32	Nckx30C	DRSC02689	1.42e6	1.46e6	9.75e5	1.16e6	inactive
33	BTBD9	DRSC18148	1.57e6	1.49e6	9.95e5	1.11e6	inactive
34	Ada	DRSC14463	1.87e6	2.16e6	1.27e6	1.45e6	inactive
35	CG4098	DRSC10399	1.32e6	1.63e6	1.35e6	1.48e6	inactive
36	CG42568 + DnaJ-60	DRSC04207	1.48e6	1.55e6	1.17e6	1.13e6	inactive
37	CG42568 + DnaJ-60	DRSC04611	1.34e6	1.40e6	1.15e6	1.25e6	inactive
38	Prosbeta5R1	DRSC04581	1.70e6	1.58e6	1.41e6	1.49e6	inactive
39	I-t	DRSC16713	1.51e6	1.55e6	1.24e6	1.31e6	inactive
40	CG11656	DRSC14338	1.58e6	1.64e6	1.31e6	1.39e6	inactive
